Values joined by “and” are separate entries in the source; they are usually repeats but may differ in a detail not shown here. Equal values may be shown once. In all, about 230,000 compounds went through this assay and about 310 (0.13%) were called active. About 2% were inconclusive and are not listed. The call rests on the fitted dose curve; in most records, active means well fitted activation curve with a large enough effect; inconclusive means small, poorly fitted or top-dose-only effect; inactive means no such curve, though single readings can be large or run the other way. Only a part is listed here, and it is no random draw. Entries without a call were filed so in the source. A structure can be active in one record and inactive in another. Non-standard residues stand in square brackets, D forms with d. Residues, ends and D or L forms follow the SMILES beside them. Nle = CCCC[C@H](N)C(=O)O
Potency means the concentration at half of the fitted maximal effect.

This test in a line: qHTS Multiplex Assay to Identify Dual Action Probes in a Cell Model of Huntington: Cytoprotection (ATP). Further: nearly all actives have a fitted effect of over 45% in size.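 On cytoprotection (ATP increase): toxic huntingtin expression switched on by the ecdysone agonist tebufenozide; % of control where 0% means no effect.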 As to conditions: PC12 HTT-Q103 induced, ATP luminescence, 40 h; cytoprotection (ATP increase): at 56.4 µM (top of the series) unless noted. Put shortly:
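Stable PC12 Q103-GFP cells in serum-supplemented, phenol red-free DMEM; induction by tebufenozide at 100 nM final; compound dose series; cell viability quantified luminescently from ATP.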
As to `Cc1cc(=O)oc2cc(OCC(=O)Nc3ccc(S(=O)(=O)N(C)C)cc3)ccc12`, the cytoprotection (ATP increase) is 230% [at 10 µM].
`CCC(=O)OC1CCC2C3CCc4cc(O)ccc4C3CC[C@]12C` (stereo not given in full): the cytoprotection (ATP increase) was -274%.
`CCCC[C@@H](C=O)NC(=O)[C@H](CC(C)C)NC(=O)[C@H](CC(C)C)NC(C)=O` (Ac-Leu-Leu-[Nle]-aldehyde): the cytoprotection (ATP increase) was -211% and -91.4%.
In the case of `O=c1[nH]cnc2c1ncn2C1OC(CO)C(O)C1O` (stereo not given), the Potency is active: 8.91 µM.
On the same count and under the same terms, the value for `O=C(Nc1ccccc1C(=O)O)c1ccc(NC(=O)c2ccc(Br)o2)cc1` was active: 2.24 µM; that for `COC(=O)C1(C(=O)OC)C[C@@H]2CON=C2[C@H]1c1ccccc1` was active: 20 µM; that for `O=C(COC(=O)CCc1nc2ccccc2n1-c1ccccc1)Nc1ccc(N2CCCCC2)cc1` was active: 3.16 µM.
On to `NC(Cc1c[nH]c2ccccc12)C(=O)O` (stereo not given), for which the cytoprotection (ATP increase) is -60.3%.
Take `COC(=O)CSc1nc(C)c(C(C)=O)cc1C#N`: the cytoprotection (ATP increase) is 6.3% [at 10 µM].
With `COc1ccc(-c2cccc([C@H]3[C@@H]4C=CC[C@@H](C)[C@@H]4C(=O)N3Cc3ccccc3)c2)cc1`, the cytoprotection (ATP increase) was -118%.
On the same count and under the same terms, the value for `COc1ccc(-c2cccc(-c3cc(=O)oc4ccc(C(C)(C)C)cc34)c2)cc1` was -47.7%.
For `O=c1ccn([C@@H]2O[C@H](COP(=O)(O)OP(=O)(O)OP(=O)(O)O)[C@@H](O)[C@H]2O)c(=O)[nH]1`, the cytoprotection (ATP increase) was -46%.
With `Cc1ccc(NC(=O)Cc2nnc(SCC(=O)Nc3ccccc3)n2C)cc1`, the cytoprotection (ATP increase) turned out to be 147% [at 10 µM].
On the same count and under the same terms, the value for `COC[C@H]1OC=C[C@@H](OC)[C@@H]1OC` was 36.8%.
Same read-out and setting: next, `CCN(CC)c1ccc(/C=N/NC(=O)CNC(=O)c2ccccn2)cc1`: -50.7%.
On the same count and under the same terms, next, `CC/C(=C(\c1ccccc1)c1ccc(OCCN(C)C)cc1)c1ccccc1`: -183%; `COCCN1C(=O)N[C@@H](c2ccc(Br)cc2)C(C(=O)OC)=C1C`: 36.1%.
Turning to `C[C@@H]1CC=C[C@@H]2[C@H]1C(=O)N(Cc1ccccc1)[C@H]2c1ccccc1Br`, the cytoprotection (ATP increase) was -350%.
On the same count and under the same terms, next, `O=C(O)C1CC[C@@](C(=O)O)(c2ccccc2)c2ccccc21` (stereo not given in full): -21.9%.
In the case of `COC(=O)Cc1sc(-c2ccccn2)nc1-c1ccccc1`, the Potency was active: 1 µM.
Consider `O=C(O)[C@H]1CC=C[C@H]2CCN(Cc3ccc(Cl)c(Cl)c3)C(=O)[C@@H]12`, for which the cytoprotection (ATP increase) stood at 32.4%.
As for `C=C(C(C)=O)C(O)c1ccc(Cl)cc1` (stereo not given), the cytoprotection (ATP increase) worked out at 32.3%.
As to `COc1ccc(C(=O)c2ccccc2O)c(O)c1`, the cytoprotection (ATP increase) was -6.12%.
On the same count and under the same terms, the value for `O=C(Nc1ccc(O)c2c(=O)cc(-c3ccccc3Cl)oc12)c1ccccc1Cl` was -26.9%; that for `CCOC(=O)Cn1c(-c2ccccn2)nc2ccccc21` was 52.2%; that for `CCC(C)NC(=S)N1CCN(Cc2ccccc2)CC1` (stereo not given) was 218% [at 10 µM].
Consider `CN1CCOC(c2ccccc2)c2ccccc2C1` (stereo not given), for which the cytoprotection (ATP increase) is -32.3%.
Take `CCCCC/C=C\C\C=C/C=C/C=C/[C@@H](SCC(NC(=O)CCC(N)C(=O)O)C(=O)NCC(=O)O)[C@@H](O)CCCC(=O)O` (stereo not given in full): the cytoprotection (ATP increase) is 55%.
With `Cc1cc(C)nc(-n2ncc3c2CCCC3=O)n1`, the Potency was active: 25.1 µM.
For `COC(=O)[C@H](COC(C)(C)C)NC(=O)O[C@H]1C(=O)c2cc(OC)ccc2O[C@@H]1c1ccc(OC)c(Br)c1`, the cytoprotection (ATP increase) was -46.6%.
Consider `CC1CCN(c2ccc(C(=O)NCc3ccc4c(c3)OCO4)cc2[N+](=O)[O-])CC1`, for which the cytoprotection (ATP increase) is 307% [at 10 µM].
As for `NCCNS(=O)(=O)c1cccc2c(Cl)cccc12`, the cytoprotection (ATP increase) is -34.8%.
The same measure, in the same setting: next, `COc1c2ccoc2cc2oc(=O)ccc12`: -52.6%; `c1ccc(Oc2nc(NC3CCCCC3)c3[nH]cnc3n2)cc1`: -82.8%; `COc1cc(OC)c2c(-c3cccc(-c4sccc4C(C)=O)c3)cc(=O)oc2c1`: -275%.
On the same count and under the same terms, next, `CC(=O)N/C(=C/c1ccc2c(c1)OCO2)C(=O)NCC(=O)O`: 119% [at 10 µM].
Regarding `Cc1ccc(NC(=S)NCCSc2ccc(Cl)cc2)c(C)c1`, the Potency was active: 1.78 µM.
Take `O=c1c2ccccc2nc2n1CCc1c-2[nH]c2ccccc12`: the cytoprotection (ATP increase) is -132%.
Consider `COc1ccc(F)c(-c2nc(CN3CCC(c4ccccc4)CC3)c(C)o2)c1`, for which the cytoprotection (ATP increase) was determined as 264% [at 10 µM].
As to `COc1cc(/C=C/c2[nH]c(=O)[nH]c(=O)c2[N+](=O)[O-])ccc1OCCC(C)C`, the Potency was active: 12.6 µM.
On to `C=C(C(=O)OCC)C(=O)c1ccccc1`, for which the cytoprotection (ATP increase) was -44.9%.
In the case of `O=C(NC(=S)Nc1cccc(S(=O)(=O)NC2=NCCC2)c1)c1cc(-c2ccco2)nc2ccccc12`, the cytoprotection (ATP increase) stood at 255% [at 10 µM].
As to `CC(=O)Oc1ccc2c(c1)CCC1C2CC[C@]2(C)C(OC(C)=O)CCC12` (stereo not given in full), the cytoprotection (ATP increase) was -159%.
As for `C[C@H](CCC(=O)O)[C@H]1CC[C@H]2[C@@H]3CC[C@@H]4C[C@H](O)CC[C@]4(C)[C@H]3CC[C@]12C`, the cytoprotection (ATP increase) is -105%.
For `O=C1C2=CC[C@@H]3C(=O)N(c4ccc(F)cc4F)C(=O)[C@H]3[C@H]2[C@H](O)[C@H]2O[C@H]12`, the Potency is active: 3.16 µM.

The record behind these values is PubChem BioAssay AID1471 (National Center for Advancing Translational Sciences (NCATS), 2008).
